Source: publication PMC5839696
These are yes or no findings as the source states them, for the method shown. Binding seen in cells or lysates may run through a third protein. Some results given as binding are weak or reduced against the parent protein; the word gives no strength.

The chains behind the UniProt entries cited, without tags or fusion partners. Where a name states a change or a piece, a line headed by the entry shows the natural chain unless it says otherwise. A line that says so, or that is headed by a name, gives the form on record, which may keep a tag or linker.
Flag-ADGRG2 (ADGRG2 full-length, ADGRG2FL) (Q8CJ12, form named): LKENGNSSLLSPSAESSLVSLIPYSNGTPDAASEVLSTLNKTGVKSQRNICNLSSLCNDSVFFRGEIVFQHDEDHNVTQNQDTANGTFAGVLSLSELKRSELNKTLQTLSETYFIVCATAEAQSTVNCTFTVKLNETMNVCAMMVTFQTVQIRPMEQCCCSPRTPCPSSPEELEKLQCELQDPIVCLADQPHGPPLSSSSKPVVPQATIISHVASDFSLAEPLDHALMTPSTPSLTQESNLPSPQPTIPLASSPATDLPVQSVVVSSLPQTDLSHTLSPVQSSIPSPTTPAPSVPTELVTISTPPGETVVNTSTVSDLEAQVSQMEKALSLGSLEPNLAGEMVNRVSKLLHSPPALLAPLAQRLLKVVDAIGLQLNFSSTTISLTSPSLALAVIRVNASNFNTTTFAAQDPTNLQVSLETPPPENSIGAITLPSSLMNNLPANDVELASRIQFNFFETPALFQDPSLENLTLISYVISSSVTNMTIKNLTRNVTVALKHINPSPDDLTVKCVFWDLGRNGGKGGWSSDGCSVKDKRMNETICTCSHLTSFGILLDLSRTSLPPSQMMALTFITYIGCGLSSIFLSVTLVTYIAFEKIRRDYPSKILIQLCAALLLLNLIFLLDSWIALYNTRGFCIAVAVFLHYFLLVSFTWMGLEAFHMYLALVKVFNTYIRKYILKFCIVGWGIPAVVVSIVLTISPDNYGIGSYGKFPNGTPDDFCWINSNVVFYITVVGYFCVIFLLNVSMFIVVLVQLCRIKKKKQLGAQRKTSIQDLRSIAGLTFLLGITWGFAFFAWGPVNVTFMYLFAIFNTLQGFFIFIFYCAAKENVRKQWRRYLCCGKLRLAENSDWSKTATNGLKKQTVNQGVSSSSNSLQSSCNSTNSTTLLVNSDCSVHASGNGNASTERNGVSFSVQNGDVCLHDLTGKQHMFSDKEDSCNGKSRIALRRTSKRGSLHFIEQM
UniProt P21279: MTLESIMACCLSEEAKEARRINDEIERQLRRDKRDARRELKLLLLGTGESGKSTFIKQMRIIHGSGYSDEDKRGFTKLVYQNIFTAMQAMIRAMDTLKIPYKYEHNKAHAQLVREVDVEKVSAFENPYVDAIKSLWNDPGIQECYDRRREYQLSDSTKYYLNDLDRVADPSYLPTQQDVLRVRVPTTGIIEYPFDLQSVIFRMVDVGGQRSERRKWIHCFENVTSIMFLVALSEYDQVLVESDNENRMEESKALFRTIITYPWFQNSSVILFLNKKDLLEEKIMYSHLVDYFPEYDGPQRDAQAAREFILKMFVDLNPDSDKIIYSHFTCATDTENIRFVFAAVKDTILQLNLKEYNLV
UniProt P49407: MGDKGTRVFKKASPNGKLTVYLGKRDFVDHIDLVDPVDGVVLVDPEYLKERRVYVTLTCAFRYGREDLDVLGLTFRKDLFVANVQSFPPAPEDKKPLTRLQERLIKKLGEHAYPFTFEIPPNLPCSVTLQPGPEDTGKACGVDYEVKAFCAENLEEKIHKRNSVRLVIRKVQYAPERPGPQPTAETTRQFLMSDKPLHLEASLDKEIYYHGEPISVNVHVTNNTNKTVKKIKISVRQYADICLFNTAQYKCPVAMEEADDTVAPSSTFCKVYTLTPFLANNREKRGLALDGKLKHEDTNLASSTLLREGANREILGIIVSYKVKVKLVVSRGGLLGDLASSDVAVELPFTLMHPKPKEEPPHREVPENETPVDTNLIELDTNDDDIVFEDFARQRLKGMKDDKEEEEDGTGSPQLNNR

Key:
[1] = target: ADGRG2 (adhesion G-protein-coupled receptor G2) (mouse (endogenous in efferent ductules)) (UniProt Q8CJ12); experiment: co-IP; efferent ductules of WT mice (Adgrg2-/Y mice as control) and of Arrb2-/- mice; proteins cross-linked with 2.5 mM DSP, tissue lysed, anti-ADGRG2 antibody (AF7977) and Protein A/G PLUS-Agarose at 4°C, western blot
[2] = target: Flag-ADGRG2 (ADGRG2 full-length, ADGRG2FL) (mouse) (UniProt Q8CJ12); experiment: co-IP; HEK293 cells transfected with equal amounts of plasmids encoding ADGRG2, CFTR, β-arrestin-1 or β-arrestin-2; Flag-ADGRG2 pulled down with M2-Flag beads, western blot

binding [1]	binding [2]	Substance
binds		Gq (from UniProt P21279 1-359)
	binds	β-arrestin-1 (overexpressed in HEK293 cells) (from UniProt P49407 1-418)
